Reference: US20060057669A1, “Inactive transcription factor tif-ia and uses thereof” (priority 2002, published 2006)

Test system: cellular localization of TIF-IA
Experiment: Immunofluorescence of FLAG-tagged TIF-IA in U-20S cells
Assay type: cell-based
Settings: 20 nM rapamycin, 2 hr

Row | Substance | localization of the TIF-IA form after rapamycin treatment
1 | TIF-IA: wild-type human transcription initiation factor TIF-IA, accession No. AJ272050 | Rapamycin-dependent translocation was observed
2 | TIF-IAS199A: the mutant in which S199 was changed to alanine | retained in the nucleoplasm
3 | TIF-IAS199D: TIF-IA mutant, replacement of S199 by aspartic acid | Rapamycin-dependent translocation was observed

Test system: TIF-IA
Experiment: Two-dimensional tryptic phosphopeptide mapping of TIF-IA labeled in vivo in HEK293T cells
Assay type: cell-based, human
Settings: S635 mutants
Method: HEK293T cells were transfected with pcDNA3.1-FLAG-TIF-IA, starved for 12 hr and labeled for 4 hr with [^32P]orthophosphate. 30 min before harvesting, 10% dialyzed FCS was added and cells were incubated in the absence (left panel) or presence of 40 μM PD98059 (right panel). Immunopurified TIF-IA was subjected to two-dimensional phosphopeptide mapping.
(B) Tryptic peptide maps of TIF-IA phosphorylated in vivo. FLAG-tagged wild-type TIF-IA, TIF-IAS633A and TIF-IAS649A were expressed in HEK293T cells and labeled with [^32P]orthophosphate for 4 hr. TIF-IA was purified by immunoprecipitation and digested with trypsin. Phosphopeptides were separated on cellulose thin-layer plates and visualized by autoradiography. The sequence of the C-terminus of human TIF-IA (H.s.) and an alignment with the corresponding sequences from mouse (M.m.), Drosophila melanogaster (D.m.) and Saccharomyces pombe (S.p.) is shown above.
(A) Two-dimensional tryptic phosphopeptide maps of TIF-IA. HEK293T cells were transfected with FLAG-tagged TIF-IA and labeled for 2 hr with [^32P]orthophosphate in the absence (left) or presence (right) of 20 nM rapamycin. TIF-IA was immunopurified, digested with trypsin, separated on cellulose thin-layer plates and visualized by autoradiography.
(B) Tryptic phosphopeptide map of TIF-IAS44A phosphorylated in vivo. FLAG-tagged wild-type TIF-IA and TIF-IAS44A were expressed in HEK293T cells and labeled for 2 hr with [^32P]orthophosphate. TIF-IA was immunopurified, digested with trypsin, separated on cellulose thin-layer plates and visualized by autoradiography.
4×10^6 HEK293T cells overexpressing FLAG-tagged TIF-IA were cultured in DMEM/0.1% FCS for 12 hr, then for 30 min in phosphate-free DMEM with 0.1% dialyzed FCS, before labeling with 0.5 mCi/ml [^32P]orthophosphate for 4 hr. For mitogenic stimulation, 10% dialyzed FCS was added 30 min before harvesting. Cells were lysed in modified RIPA buffer (20 mM Tris-HCl [pH 7.4], 200 mM NaCl, 2 mM EDTA, 2 mM EGTA, 1% Triton X-100, 0.1% SDS, 10 mM a-glycerophosphate, 10 mM KH2PO4, 1 mM Na3VO4, 0.5 mM PMSF, 1 μg/ml aprotinin, 5 μg/ml leupeptin, and 1 gg/ml pepstatin A). TIF-IA was immunoprecipitated, separated by SDS-PAGE, transferred to nitrocellulose and visualized by autoradiography. For tryptic phosphopeptide mapping, labeled TIF-IA was digested overnight at 37° C. with 5 μg trypsin (sequencing grade, Promega Corp., Madison, USA) in 50 mM ammonium bicarbonate. After lyophilisation, the peptides were resolved on cellulose thin-layer plates by electrophoresis for 25 min at 1000 V in 1% (w/v) ammonium carbonate (pH 8.9), followed by ascending chromatography in a buffer containing 62.5% isobutyric acid, 1.9% n-butanol, 4.8% pyridine and 2.9% acetic acid.
To identify the amino acids that are phosphorylated by ERK-dependent pathways, serum-starved cells were metabolically labeled with [^32P]orthophosphate, then stimulated with serum in the absence or presence of PD98059, and immunopurified TIF-IA was subjected to two-dimensional tryptic phosphopeptide mapping. Consistent with its role in sensing a variety of external signals, TIF-IA was phosphorylated at multiple sites. In serum-stimulated cells 10 peptides were phosphorylated (FIG. 3C, left panel). In the presence of PD98059, labeling of spots d, f and g, was impaired (FIG. 3C, right panel). In addition, phosphorylation of spots b and c was reduced. Thus, ERK-dependent kinases directly or indirectly phosphorylate TIF-IA at several sites.
An important prediction of TIF-IA activity being regulated by rapamycin-sensitive signaling pathways is that the phosphorylation pattern of TIF-IA is different in untreated and rapamycin-treated cells. To test this prediction, the tryptic phosphopeptide pattern of TIF-IA derived from exponentially growing and rapamycin-treated cells was compared. […]

Row | Substance | in vivo phosphorylation of S633 and S649
4 | TIF-IAS635A: TIF-IA point mutant, serine 635 replaced by alanine | both sites are phosphorylated
5 | TIF-IAS635D: TIF-IA with single-residue substitution at S635 by aspartic acid | prevents in vivo phosphorylation of S633 and S649

Same assay, conditions: labeled in vivo with [32P]orthophosphate

Row | Substance | tryptic phosphopeptide pattern of mutant compared with wild-type TIF-IA
6 | TIF-IA1-632: a mutant lacking the C-terminal amino acids 633-651 | phosphopeptides c, d, f and g were absent
7 | TIF-IAS44A: TIF-IA mutant, S44 mutated to alanine | phosphopeptides b and b′ were lacking
8 | TIF-IAS633A: TIF-IA point mutant, serine 633 replaced by alanine | lacks two phosphopeptides, i.e., spots f and g
9 | TIF-IAS649A: TIF-IA point mutant, serine residue at position 649 replaced by an alanine residue | spots d, f and g, were absent
